According to article PMC3742833:
These are yes or no findings as the source states them, for the method shown. In cells and extracts the contact can be indirect. Some results given as binding are weak or reduced against the parent protein; the word gives no strength. Sequences can lack the tags named with a protein.

By UniProt entry, the sequences of proteins in these tests, tags left out.
UniProt P27986: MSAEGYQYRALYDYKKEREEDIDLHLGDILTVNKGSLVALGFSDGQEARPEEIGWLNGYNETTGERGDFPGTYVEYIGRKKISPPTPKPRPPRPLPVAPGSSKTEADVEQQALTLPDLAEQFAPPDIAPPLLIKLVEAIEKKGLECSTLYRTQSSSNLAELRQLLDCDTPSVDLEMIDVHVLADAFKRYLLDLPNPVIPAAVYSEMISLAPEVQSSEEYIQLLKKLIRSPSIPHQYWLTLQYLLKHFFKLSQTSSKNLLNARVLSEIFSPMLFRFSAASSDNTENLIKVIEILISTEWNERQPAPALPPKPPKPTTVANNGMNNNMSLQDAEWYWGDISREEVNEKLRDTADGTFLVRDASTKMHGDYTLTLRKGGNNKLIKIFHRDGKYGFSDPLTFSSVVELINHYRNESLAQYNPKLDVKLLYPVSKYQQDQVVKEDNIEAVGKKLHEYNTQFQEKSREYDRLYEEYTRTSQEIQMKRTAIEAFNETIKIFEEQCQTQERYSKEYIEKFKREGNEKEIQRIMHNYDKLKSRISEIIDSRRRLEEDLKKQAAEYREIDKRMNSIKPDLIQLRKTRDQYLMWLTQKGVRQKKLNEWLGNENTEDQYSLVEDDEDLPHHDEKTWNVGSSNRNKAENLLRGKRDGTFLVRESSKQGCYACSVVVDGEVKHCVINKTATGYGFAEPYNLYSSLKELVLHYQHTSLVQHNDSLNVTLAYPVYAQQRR

Target: T1, FLAG-FAM83B (Family with Sequence Similarity 83, member B) (UniProt Q5T0W9)
T1 sequence: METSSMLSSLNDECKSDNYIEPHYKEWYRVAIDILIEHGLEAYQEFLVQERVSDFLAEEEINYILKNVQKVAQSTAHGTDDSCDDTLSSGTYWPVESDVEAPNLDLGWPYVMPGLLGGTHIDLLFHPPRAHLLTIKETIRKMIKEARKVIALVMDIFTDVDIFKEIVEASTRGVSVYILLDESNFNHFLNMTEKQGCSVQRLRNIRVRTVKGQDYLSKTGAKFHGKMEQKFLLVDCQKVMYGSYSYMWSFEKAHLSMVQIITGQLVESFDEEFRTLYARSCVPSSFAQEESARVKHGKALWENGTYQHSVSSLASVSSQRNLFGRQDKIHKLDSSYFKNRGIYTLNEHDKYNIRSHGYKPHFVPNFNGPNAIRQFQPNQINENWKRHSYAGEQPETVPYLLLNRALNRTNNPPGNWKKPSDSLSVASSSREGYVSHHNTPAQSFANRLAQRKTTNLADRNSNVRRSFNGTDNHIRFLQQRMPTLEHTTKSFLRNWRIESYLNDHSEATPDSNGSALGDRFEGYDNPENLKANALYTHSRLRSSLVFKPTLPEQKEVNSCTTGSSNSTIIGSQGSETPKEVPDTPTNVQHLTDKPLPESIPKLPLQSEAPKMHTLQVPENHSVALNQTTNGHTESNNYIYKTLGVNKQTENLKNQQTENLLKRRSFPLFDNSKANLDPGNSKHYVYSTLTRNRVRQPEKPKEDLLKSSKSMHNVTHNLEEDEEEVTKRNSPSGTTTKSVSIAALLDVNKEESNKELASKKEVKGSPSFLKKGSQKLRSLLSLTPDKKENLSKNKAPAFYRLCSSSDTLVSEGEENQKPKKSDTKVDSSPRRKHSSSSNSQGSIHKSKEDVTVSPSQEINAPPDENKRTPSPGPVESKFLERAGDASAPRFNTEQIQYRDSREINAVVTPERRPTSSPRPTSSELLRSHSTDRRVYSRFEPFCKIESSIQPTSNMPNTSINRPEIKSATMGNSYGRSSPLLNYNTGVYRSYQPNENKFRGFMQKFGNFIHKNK
Assay: co-IP; 293T cells co-transfected with 4 μg of each plasmid (lipofectamine 2000); immunoprecipitation with anti-FLAG (M2) affinity gel; lysis buffer 50 mmol/L Tris pH 8.0, 150 mmol/L NaCl, 1.0% NP40; Western analysis of the precipitate

With “HA-p85 (p85α regulatory subunit of PI3K) (from UniProt P27986 1-724)” the binding was “binds”.
